Measurements reported in PubChem BioAssay AID1259286 (Sanger Institute, 2017).
Assay: 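Kinome knock-downs lethal on their own or synergistic with anchor drugs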 (primary screen). System: NCI-H630 human colorectal cancer cells. Reagent: siRNA pool against human genes. Challenge: anchor drugs BYL719 at 1 µM, cetuximab at 5 µg/ml or trametinib at 10 nM, or DMSO vehicle alone; exposure time not given. Detection: 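Viability relative to non-targeting pool wells, averaged over replicates, with robust z-score for knock-down alone and a synergy score for each anchor drug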. Reading the numbers: viability z-score, knock-down alone: higher = more viable cells, weaker knock-down effect. Call rule: 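a gene is called essential when its knock-down-alone viability robust z-score is below -3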. Calls: active = essential when knocked down alone; inactive = not essential alone.
This is a random part of 794 reagents tested. 17 of all reagents (2.1%) count as active. 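Calls use knock-down alone only; synergy above 0.15 marked separately; viability seems capped at control level; exposure time not given.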 Further read-outs or replicates are left out here. Not given: the amount of reagent, the time to read-out.

After knock-down of EXOSC10, the screen gave viability z-score, knock-down alone -0.0647; inactive.
With knock-down of EPHA2, the screen gave viability z-score, knock-down alone 0.464; inactive.
RAF1 showed viability z-score, knock-down alone 0.464; inactive.
Silencing of KHK resulted in: viability z-score, knock-down alone 0.464; inactive.
Against MAGI3, the values are viability z-score, knock-down alone 0.464; inactive.
After knock-down of STK3 the results were viability z-score, knock-down alone 0.464; inactive.
With knock-down of CDKL1, the record shows viability z-score, knock-down alone 0.464; inactive.
With knock-down of SRMS the results were viability z-score, knock-down alone -1.05; inactive.
MED24 gave viability z-score, knock-down alone 0.464; inactive.
After knock-down of MAST4, the record shows viability z-score, knock-down alone 0.464; inactive.
CHD9 showed viability z-score, knock-down alone 0.464; inactive.
Against PDPK1 the deposit lists viability z-score, knock-down alone -0.691; inactive.
Against RET, the entry reads viability z-score, knock-down alone 0.464; inactive.
Depletion of HIPK3 came out at: viability z-score, knock-down alone 0.0417; inactive.
For PIP4K2A, the values are viability z-score, knock-down alone -0.433; inactive.
For MAGI1, the values are viability z-score, knock-down alone 0.464; inactive.
For DGKD, the entry reads viability z-score, knock-down alone -1.85; inactive.
With knock-down of AXL, the screen gave viability z-score, knock-down alone 0.464; inactive.
STK36 showed viability z-score, knock-down alone 0.464; inactive.

Already shown: an excerpt of the list.
EXOSC10 | viability z-score, knock-down alone: -0.0647; activity call: inactive
EPHA2 | viability z-score, knock-down alone: 0.464; activity call: inactive
